In paper PMC12002053:
Results are given in words; binding and its absence hold for the method and conditions named. In cells and extracts the contact can be indirect. Some entries that bind do so weakly or less than the wild type. For part of these data: Sequences can lack the tags named with a protein. Blank lines part the entries; values can stand above or below the binder they belong to.

Chains of the proteins cited; added tags and fusions are not shown. Lines headed by an entry give the natural chain unless they say otherwise; changes in a name come on top. A line that says so, or that is headed by a name, gives the form on record, which may keep a tag or linker.
EGFP-tagged CNBP (human CNBP CDS with an N-terminal EGFP tag), expressed in NIH/3T3 cells (P62633, form named): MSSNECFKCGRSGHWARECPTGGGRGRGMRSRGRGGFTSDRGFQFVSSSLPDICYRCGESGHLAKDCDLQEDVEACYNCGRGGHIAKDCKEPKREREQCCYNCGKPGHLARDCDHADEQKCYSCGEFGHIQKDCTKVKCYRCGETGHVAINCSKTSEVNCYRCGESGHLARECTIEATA

What was measured:
[1] = target: EGFP-tagged CNBP (human CNBP CDS with an N-terminal EGFP tag), expressed in HEK293 cells (human) (UniProt P62633); experiment: co-IP; as a1, but cleared HEK293 lysates incubated with RNaseA (50 μg/ml) and RNase If (300 μg/ml) for 30 min at RT before GFP-Trap beads
[2] = target: EGFP-tagged CNBP (human CNBP CDS with an N-terminal EGFP tag), expressed in HEK293 cells (human) (UniProt P62633); experiment: co-IP; EGFP-CNBP captured on GFP-Trap magnetic agarose beads from cleared lysates of HEK293 cells co-expressing KIF1C-mCherry; 50mM Tris pH 7.4, 1% NP-40, 150mM NaCl, 10mM MgCl2, 10% glycerol; 1 h at 4°C; immunoblot
[3] = target: EGFP-tagged CNBP (human CNBP CDS with an N-terminal EGFP tag), expressed in NIH/3T3 cells (human) (UniProt P62633); experiment: co-IP; EGFP-CNBP captured on GFP-Trap magnetic agarose beads from lysates of transfected NIH/3T3 cells; endogenous Kif1c detected by immunoblot

binding [1]: binds | binding [2]: binds
B1: mCherry-tagged KIF1C (human KIF1C CDS with a C-terminal mCherry tag) (protein, UniProt O43896 1-1103)
chain: MAGASVKVAVRVRPFNARETSQDAKCVVSMQGNTTSIINPKQSKDAPKSFTFDYSYWSHTSTEDPQFASQQQVYRDIGEEMLLHAFEGYNVCIFAYGQTGAGKSYTMMGRQEPGQQGIVPQLCEDLFSRVSENQSAQLSYSVEVSYMEIYCERVRDLLNPKSRGSLRVREHPILGPYVQDLSKLAVTSYADIADLMDCGNKARTVAATNMNETSSRSHAVFTIVFTQRCHDQLTGLDSEKVSKISLVDLAGSERADSSGARGMRLKEGANINKSLTTLGKVISALADMQSKKRKSDFIPYRDSVLTWLLKENLGGNSRTAMIAALSPADINYEETLSTLRYADRTKQIRCNAIINEDPNARLIRELQEEVARLRELLMAQGLSASALEGLKTEEGSVRGALPAVSSPPAPVSPSSPTTHNGELEPSFSPNTESQIGPEEAMERLQETEKIIAELNETWEEKLRKTEALRMEREALLAEMGVAVREDGGTVGVFSPKKTPHLVNLNEDPLMSECLLYHIKDGVTRVGQVDMDIKLTGQFIREQHCLFRSIPQPDGEVVVTLEPCEGAETYVNGKLVTEPLVLKSGNRIVMGKNHVFRFNHPEQARLERERGVPPPPGPPSEPVDWNFAQKELLEQQGIDIKLEMEKRLQDLENQYRKEKEEADLLLEQQRLYADSDSGDDSDKRSCEESWRLISSLREQLPPTTVQTIVKRCGLPSSGKRRAPRRVYQIPQRRRLQGKDPRWATMADLKMQAVKEICYEVALADFRHGRAEIEALAALKMRELCRTYGKPDGPGDAWRAVARDVWDTVGEEEGGGAGSGGGSEEGARGAEVEDLRAHIDKLTGILQEVKLQNSSKDRELQALRDRMLRMERVIPLAQDHEDENEEGGEVPWAPPEGSEAAEEAAPSDRMPSARPPSPPLSSWERVSRLMEEDPAFRRGRLRWLKQEQLRLQGLQGSGGRGGGLRRPPARFVPPHDCKLRFPFKSNPQHRESWPGMGSGEAPTPLQPPEEVTPHPATPARRPPSPRRSHHPRRNSLDGGGRSRGAGSAQPEPQHFQPKKHNSYPQPPQPYPAQRPPGPRYPPYTTPPRMRRQRSAPDLKESGAAV

binding [3]: binds
B2: endogenous Kif1c of NIH/3T3 cells (protein, UniProt O35071 1-1100)
chain: MAGASVKVAVRVRPFNARETSQDAKCVVSMQGNTTSIINPKQSKDAPKSFTFDYSYWSHTSVEDPQFASQQQVYRDIGEEMLLHAFEGYNVCIFAYGQTGAGKSYTMMGRQEPGQQGIVPQLCEDLFSRVNVNQSAQLSYSVEVSYMEIYCERVRDLLNPKSRGSLRVREHPILGPYVQDLSKLAVTSYADIADLMDCGNKARTVAATNMNETSSRSHAVFTIVFTQRSHDQLTGLDSEKVSKISLVDLAGSERADSSGARGMRLKEGANINKSLTTLGKVISALADLQSKKRKSDFIPYRDSVLTWLLKENLGGNSRTAMIAALSPADINYEETLSTLRYADRTKQIRCNAVINEDPNARLIRELQEEVARLRDLLMAQGLSASALGGLKVEEGSPGGVLPPASSPPAPASPSSPPPHNGELEPSFSPSAEPQIGPEEAMERLQETEKIIAELNETWEEKLRKTEALRMEREALLAEMGVAVREDGGTVGVFSPKKTPHLVNLNEDPLMSECLLYHIKDGVTRVGQVDVDIKLTGQFIREQHCLFRSIPQPDGEVMVTLEPCEGAETYVNGKLVTEPLVLKSGNRIVMGKNHVFRFNHPEQARLERERGVPPPPGPPSEPVDWNFAQKELLEQQGIDIKLEMEKRLQDLENQYRKEKEEADLLLEQQRLYADSDSGEDSDKRSCEESWRLISSLREQLPPTTVQNIVKRCGLPSSGKRRAPRRVYQIPQRRRLQGKDPRWATMADLKMQAVKEICYEVALADFRHGRAEIEALAALKMRELCRTYGKPEGPGDAWRAVARDVWDTVGEEEGCGGGGGGSEEGARGAEVEDLRAHIDKLTGILQEVKLQNSSKDRELQALRDRMLRMERVIPLTQDLEDDNDESGLVTWAPPEGPEAVEETVPNDHSPAVRPTSPPLSSWERVSRLMEEDPAFRRGRLRWLKQEQLRLQGLQGAGGRGGGLRRPPARFVPPHDCKLRFPFKSNPQHRESWPGMGSGEAPAPQPPEEVTVPPAPPNRRPPSPRRPHRSRRNSLDGGSRSRGGGSTQPEPQHLRPQKHNGYPQQPQPSPAQRPGPRYPPYTTPPRMRRQRSAPDLKESGAAV
